Results published in the supplement of paper PMC8426693.
The list shows a part of the results.

Legend:
Test in all cases: NMR binding call after quantification (hit when 2 of 3 NMR criteria are met) (binary (1 = binding, 0 = not binding)); higher = binding
Settings in all cases: RNA concentration 10 µM; fragment concentration 200 µM; 293 K
SARS-CoV-2 3'-UTR RNA = system: SARS-CoV-2 3'-UTR RNA
SARS-CoV-2 3_SL1 RNA = system: SARS-CoV-2 3_SL1 RNA
SARS-CoV-2 3_SL1+2 RNA = system: SARS-CoV-2 3_SL1+2 RNA
SARS-CoV-2 3_SL2 RNA = system: SARS-CoV-2 3_SL2 RNA
SARS-CoV-2 3_SL3base RNA = system: SARS-CoV-2 3_SL3base RNA
SARS-CoV-2 3_s2m RNA = system: SARS-CoV-2 3_s2m RNA
SARS-CoV-2 5'-UTR RNA = system: SARS-CoV-2 5'-UTR RNA
SARS-CoV-2 5_SL1 RNA = system: SARS-CoV-2 5_SL1 RNA
SARS-CoV-2 5_SL1234 RNA = system: SARS-CoV-2 5_SL1234 RNA
SARS-CoV-2 5_SL2+3 RNA = system: SARS-CoV-2 5_SL2+3 RNA
SARS-CoV-2 5_SL4 RNA = system: SARS-CoV-2 5_SL4 RNA
SARS-CoV-2 5_SL5 RNA = system: SARS-CoV-2 5_SL5 RNA
SARS-CoV-2 5_SL5a RNA = system: SARS-CoV-2 5_SL5a RNA
SARS-CoV-2 5_SL5b+c RNA = system: SARS-CoV-2 5_SL5b+c RNA
SARS-CoV-2 5_SL5stem RNA = system: SARS-CoV-2 5_SL5stem RNA
SARS-CoV-2 5_SL6 RNA = system: SARS-CoV-2 5_SL6 RNA

Measured: NMR binding call

Oc1ccc(CN2CCOCC2)c2cccnc12
0: all assays above

Cc1ncc(CNc2cncc(F)c2)s1
0: all assays above

OCc1ccccc1N1CCOCC1
0: all assays above

CC(C)C(N)C(=O)N1CCOCC1 (stereo unspecified)
0: all assays above

CS(=O)(=O)Nc1ccc(C(N)=O)cc1
0: all assays above

Cc1nn(Cc2c(C)noc2C)c(=O)s1
0: all assays above

O=C(CN1CCCC1)Nc1cccc(Cl)c1
0: all assays above

Fc1ccccc1NCc1cc[nH]n1
0: all assays above

Cl.Cn1cc(C(N)=O)c(C2CCCNC2)n1 (stereo unspecified)
0: all assays above

c1cnc(N2CCC3(CCOC3)C2)cn1 (stereo unspecified)
1: SARS-CoV-2 3'-UTR RNA
0: all other assays above

Cc1ccccc1OCC(=O)N(C)C
0: all assays above

CS(=O)(=O)c1nccn1Cc1cscn1
not listed: SARS-CoV-2 5_SL5stem RNA
0: all other assays above

CCC(=O)NCc1nnc2n1CCCC2
0: all assays above

c1ccc(CNC2CCNC2)cc1 (stereo unspecified)
not listed: SARS-CoV-2 5_SL5b+c RNA
0: all other assays above

CNC(=O)c1nc2ccccc2c(=O)[nH]1
1: SARS-CoV-2 3'-UTR RNA | SARS-CoV-2 5'-UTR RNA
not listed: SARS-CoV-2 5_SL5 RNA
0: all other assays above

CCOc1ccccc1N1CCNCC1.Cl
0: all assays above

Cc1ccc(S(=O)(=O)N(C)CCC#N)cc1
0: all assays above

OCc1ccc(-n2cnc3ccccc32)cc1
1: SARS-CoV-2 3'-UTR RNA | SARS-CoV-2 5'-UTR RNA
not listed: SARS-CoV-2 5_SL5 RNA
0: all other assays above

COc1ccccc1N1CCN(CC#N)CC1
0: all assays above

Cn1cc(C(N)=O)c(C(F)F)n1
not listed: SARS-CoV-2 5_SL5b+c RNA
0: all other assays above

CC(=O)c1ccc(OC(F)F)cc1
not listed: SARS-CoV-2 5_SL5stem RNA
0: all other assays above

COc1ccc(CN2CCOCC2)cc1OC
not listed: SARS-CoV-2 5_SL5b+c RNA
0: all other assays above

COC(=O)c1ccncc1
0: all assays above

CC(C)NCc1ccc(N(C)C)cc1
not listed: SARS-CoV-2 5_SL5stem RNA
0: all other assays above

N#CCCN1CCOCC1
0: all assays above

Cc1cccc(CN2CCOCC2)c1
not listed: SARS-CoV-2 5_SL5b+c RNA
0: all other assays above

CCOC(=O)c1sc(N(C)C(C)=O)nc1C
not listed: SARS-CoV-2 5_SL5stem RNA
0: all other assays above

O=S1(=O)CCN(Cc2ccco2)CC1
0: all assays above

CC(=O)Nc1cc(C)n[nH]1
not listed: SARS-CoV-2 5_SL5b+c RNA
0: all other assays above

COC(=O)C1CCN(CC(N)=O)CC1
not listed: SARS-CoV-2 5_SL5stem RNA
0: all other assays above

CCNc1ncccc1C
0: all assays above

CCc1noc(C)c1C(=O)Nc1cc(C)on1
not listed: SARS-CoV-2 5_SL5a RNA
0: all other assays above

Cc1ccc(NC(=O)C2CCCO2)nc1 (stereo unspecified)
not listed: SARS-CoV-2 5_SL5b+c RNA
0: all other assays above

CCOC(=O)Nc1sccc1C(N)=O
0: all assays above

CS(=O)(=O)Nc1ccc(CN)cc1.Cl
not listed: SARS-CoV-2 5_SL5 RNA
0: all other assays above

Cc1ccc(OCC(=O)Nc2cc(C)on2)cc1
not listed: SARS-CoV-2 5_SL5stem RNA
0: all other assays above

COC(=O)c1sccc1NC(=O)C1CC1
0: all assays above
